The experiment concerns the target T1, Cas2 with C-terminal 6X Histidine tag (Escherichia coli type I-E) (Escherichia coli) (UniProt P45956).
T1 sequence: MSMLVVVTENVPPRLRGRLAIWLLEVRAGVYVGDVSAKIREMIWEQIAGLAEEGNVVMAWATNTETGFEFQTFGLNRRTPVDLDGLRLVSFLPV
In words: co-purification.

Residue numbers refer to the chain shown, from its start. Names and notes keep the numbering of the source. No constants are given. Whether binding was seen depends on the method and setting. Some binding calls cover weakened binding; strength is not graded here. Tags and fused reporters may be left off the sequences shown.

B1: Cas1 (wild type, Escherichia coli type I-E) (protein, UniProt Q46896 1-305)
chain: MTWLPLNPIPLKDRVSMIFLQYGQIDVIDGAFVLIDKTGIRTHIPVGSVACIMLEPGTRVSHAAVRLAAQVGTLLVWVGEAGVRVYASGQPGGARSDKLLYQAKLALDEDLRLKVVRKMFELRFGEPAPARRSVEQLRGIEGSRVRATYALLAKQYGVTWNGRRYDPKDWEKGDTINQCISAATSCLYGVTEAAILAAGYAPAIGFVHTGKPLSFVYDIADIIKFDTVVPKAFEIARRNPGEPDREVRLACRDIFRSSKTLAKLIPLIEDVLAAGEIQPPAPPEDAQPVAIPLPVSLGDAGHRSS
With B1, the binding entry is “binds”.

B2: Cas1 Penta-mutant (5M - Q24H, P202Q, G241D, E276D, L297Q) (protein, UniProt Q46896 1-305)
chain: B1 chain with Q24H, P202Q, G241D, E276D, L297Q
On to B2, for which the binding entry is reported as “binds”.

B3: Cas1 with alanine substitution at tyrosine 22 (Y22A) (protein, UniProt Q46896 1-305)
chain: B1 chain with Y22A
B3: the binding result is on record as “binds”.

B4: Cas1 with deletion of the C-terminal tail (ΔC - ΔP279-S305) (domain or fragment, UniProt Q46896 1-278)
chain: MTWLPLNPIPLKDRVSMIFLQYGQIDVIDGAFVLIDKTGIRTHIPVGSVACIMLEPGTRVSHAAVRLAAQVGTLLVWVGEAGVRVYASGQPGGARSDKLLYQAKLALDEDLRLKVVRKMFELRFGEPAPARRSVEQLRGIEGSRVRATYALLAKQYGVTWNGRRYDPKDWEKGDTINQCISAATSCLYGVTEAAILAAGYAPAIGFVHTGKPLSFVYDIADIIKFDTVVPKAFEIARRNPGEPDREVRLACRDIFRSSKTLAKLIPLIEDVLAAGEIQ
As to B4, the binding result is “binds”.
